No constants are given. Whether binding was seen depends on the method and setting. For part of these data: Binding calls can cover weak binding; strength is not graded here. Sequences can lack the tags named with a protein. For part of these data: In cells and extracts the contact can be indirect.
T1: OsJAZ6-cYFP (rice (Oryza sativa)) (UniProt Q84R94)
T1 sequence: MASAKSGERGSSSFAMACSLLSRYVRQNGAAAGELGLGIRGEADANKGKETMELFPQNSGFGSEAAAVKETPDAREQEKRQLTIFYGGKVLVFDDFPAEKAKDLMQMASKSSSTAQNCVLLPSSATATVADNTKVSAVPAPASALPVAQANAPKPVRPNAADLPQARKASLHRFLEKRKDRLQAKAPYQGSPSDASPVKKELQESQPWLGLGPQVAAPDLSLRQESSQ

T2: OsJAZ7-cYFP (rice (Oryza sativa)) (UniProt Q8H395)
T2 sequence: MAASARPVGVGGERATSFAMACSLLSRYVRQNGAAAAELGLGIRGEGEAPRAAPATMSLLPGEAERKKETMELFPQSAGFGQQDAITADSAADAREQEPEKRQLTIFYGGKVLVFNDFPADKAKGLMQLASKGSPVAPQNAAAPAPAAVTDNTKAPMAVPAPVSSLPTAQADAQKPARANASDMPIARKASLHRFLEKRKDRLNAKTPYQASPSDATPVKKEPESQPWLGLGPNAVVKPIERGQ

B1: MBP::OsJAZ6 fusion protein (protein)
chain: T1 sequence
B2: MBP::OsJAZ7 fusion protein (protein)
chain: T2 sequence

Assays:
[1] = target: T1, OsJAZ6-cYFP (rice (Oryza sativa)); assay: split reporter; BiFC with the N- and C-terminal regions of YFP; rice protoplasts by the results and legend, agroinfiltrated Nicotiana benthamiana leaves by the methods; confocal microscopy
[2] = target: T2, OsJAZ7-cYFP (rice (Oryza sativa)); assay: as above
[3] = target: glutathione-S-transferase (GST) alone; assay: pull-down; 2 μg MBP::OsJAZ6 or MBP::OsJAZ7 prey incubated with 2 μg immobilized GST, GST::OsABI3 or GST::OsABI5 bait; washed three times; immunoblot with anti-GST and anti-MBP; both purified
[4] = target: GST::OsABI3 fusion protein (rice (Oryza sativa)); assay: as above

Molecule	binding [1]	binding [2]	binding [3]	binding [4]
OsABI3-nYFP (rice (Oryza sativa))	binds	binds		
B1			no binding	binds
B2			no binding	binds

From publication PMC10121563 (2023)
